According to US10444228B2, “Method of screening a candidate compound for inducing bile canalicular function disorders” (Biopredic International, priority 2014, dated 2019):
At least one structure is not confirmed: it was looked up by name or label, or the drawing left a doubt.

System: ZO-1
Test: Immunolocalization of junctional protein ZO-1
Assay type: cell-based, human
Conditions: treated HepaRG cultures

C[C@H](CCC(=O)O)[C@H]1CC[C@H]2[C@@H]3CC[C@@H]4C[C@H](O)CC[C@]4(C)[C@H]3C[C@H](O)[C@]12C [DCA, Deoxycholic acid]
distribution of ZO-1 at the biliary pole: appears normal
